# Paper PMC6176997
# Amino acid sequences for entries named in this document (tags omitted).
# UniProt P70288: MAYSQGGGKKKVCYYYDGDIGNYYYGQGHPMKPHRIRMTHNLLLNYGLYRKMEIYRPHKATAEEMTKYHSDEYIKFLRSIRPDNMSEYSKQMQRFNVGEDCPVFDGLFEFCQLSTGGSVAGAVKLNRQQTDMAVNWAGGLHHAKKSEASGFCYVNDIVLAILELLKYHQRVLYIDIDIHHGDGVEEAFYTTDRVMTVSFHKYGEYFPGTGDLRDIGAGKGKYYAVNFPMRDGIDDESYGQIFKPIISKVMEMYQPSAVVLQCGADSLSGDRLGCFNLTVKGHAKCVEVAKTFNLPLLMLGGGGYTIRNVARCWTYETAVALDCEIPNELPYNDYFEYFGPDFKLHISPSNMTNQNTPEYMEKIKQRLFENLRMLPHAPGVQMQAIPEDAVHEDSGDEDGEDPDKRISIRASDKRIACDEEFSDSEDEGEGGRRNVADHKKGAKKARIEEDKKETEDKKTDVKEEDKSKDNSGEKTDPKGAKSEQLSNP
# UniProt O09106: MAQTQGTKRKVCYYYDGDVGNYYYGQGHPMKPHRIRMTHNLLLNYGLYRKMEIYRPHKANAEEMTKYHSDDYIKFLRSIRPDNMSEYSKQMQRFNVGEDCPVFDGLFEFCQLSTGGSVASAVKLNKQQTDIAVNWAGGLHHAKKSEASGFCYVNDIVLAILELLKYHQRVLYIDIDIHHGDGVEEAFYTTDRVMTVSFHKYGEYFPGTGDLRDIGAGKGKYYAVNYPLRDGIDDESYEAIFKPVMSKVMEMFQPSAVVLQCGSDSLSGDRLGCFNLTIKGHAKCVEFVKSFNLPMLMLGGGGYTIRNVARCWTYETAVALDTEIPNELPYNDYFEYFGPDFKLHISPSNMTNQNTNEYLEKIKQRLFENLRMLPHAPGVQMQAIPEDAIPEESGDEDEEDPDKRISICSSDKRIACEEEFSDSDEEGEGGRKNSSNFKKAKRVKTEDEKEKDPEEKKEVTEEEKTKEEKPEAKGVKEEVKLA
# No constants are given. Whether binding was seen depends on the method and setting. Binding seen in cells or lysates may run through a third protein.
# Biological target: T1, Tbx1:3xHA (UniProt P70323)
# T1 sequence: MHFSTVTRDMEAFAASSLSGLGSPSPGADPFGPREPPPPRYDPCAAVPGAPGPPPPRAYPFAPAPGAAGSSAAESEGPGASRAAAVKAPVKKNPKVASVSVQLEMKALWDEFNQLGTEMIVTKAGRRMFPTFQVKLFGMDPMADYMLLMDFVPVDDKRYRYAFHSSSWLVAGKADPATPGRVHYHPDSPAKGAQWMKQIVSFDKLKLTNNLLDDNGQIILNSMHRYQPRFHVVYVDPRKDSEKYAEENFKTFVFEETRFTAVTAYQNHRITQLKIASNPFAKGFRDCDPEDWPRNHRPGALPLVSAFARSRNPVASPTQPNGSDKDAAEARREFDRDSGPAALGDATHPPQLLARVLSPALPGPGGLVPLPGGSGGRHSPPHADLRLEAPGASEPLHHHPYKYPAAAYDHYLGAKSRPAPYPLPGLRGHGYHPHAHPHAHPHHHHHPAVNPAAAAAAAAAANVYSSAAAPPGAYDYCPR
# Assay: co-IP; nuclear extracts of C2C12 cells transfected with Tbx1:3xHA, incubated overnight at 4°C with anti-HA antibodies (or control IgG) crosslinked to protein-G Dynabeads; washed with PBS-0.02% Tween 20; eluted with 0.1 M glycine pH 2.8; western blot with anti-HDAC1, anti-HDAC2 and anti-HA
row,Substance,binding
1,HDAC2 (from UniProt P70288 1-488),no binding
2,HDAC1 (from UniProt O09106 1-482),no binding
